{"source": "patent US20130324437A1", "about": "“METHOD FOR IDENTIFYING ANTIMICROBIAL COMPOUNDS AND DETERMINING ANTIBIOTIC SENSITIVITY” (THE REGENTS OF THE UNIVERSITY OF CALIFORNIA, priority 2010, published 2013)", "tested_on": "E. coli strain JP750", "type": "cell-based, Escherichia coli", "settings": "LB, 30° C., FIG. 2", "method": "The dose-dependent cytological profiles for the various classes of antibiotics was determined. In general, a series of cultures of the appropriate strain were grown in LB at 30° C. until the cultures reached a density of approximately 2×10^8 cells/ml, at which point the compound of interest was added so that the final concentrations ranged from 0 to 200 μg/ml. For each compound, samples representing ⅕×, 1× and 5× the MIC were examined. Samples were taken at various times after addition of drug (ranging from 0.2 to 3 hours). The cells were stained with FM 4-64 (1 μg/ml) to visualize the cell membranes and DAPI (5 μg/ml) to visualize the chromosome (Pogliano et al. (1999) Mol. Microbiol. 31:1149). Samples can also be incubated in very small volumes (10 μl or less) with similar results.\nImages of each stain and any fluorescently-tagged fusion protein present in the strain were then captured using a high resolution microscope. Cell length and width, chromosome length and shape, distance of the chromosome from each cell pole, the number of chromosomes per cell, and the presence and distribution of GFP (or GFP fusions) present within the cells were measured.\nIn the specific examples described below, E. coli strain JP750 was grown for 2 hours at 30° C. in the presence of various concentrations of nalidixic acid, chloramphenicol, or cephalexin, ranging from 0 to 30 μg/ml. […]", "data": [{"compound": "CC1=C(C(=O)O)N2C(=O)[C@@H](NC(=O)[C@H](N)c3ccccc3)[C@H]2SC1", "note": "[cephalexin]", "values": [{"measurement": "SeqA-GFP foci distribution", "value": "multiple SeqA-GFP foci that are spread uniformly throughout the cell"}]}]}
